The other results are listed elsewhere or left out.

By UniProt entry, the sequences of proteins in these tests, tags left out.
UniProt Q0JBA9, entry or part of it: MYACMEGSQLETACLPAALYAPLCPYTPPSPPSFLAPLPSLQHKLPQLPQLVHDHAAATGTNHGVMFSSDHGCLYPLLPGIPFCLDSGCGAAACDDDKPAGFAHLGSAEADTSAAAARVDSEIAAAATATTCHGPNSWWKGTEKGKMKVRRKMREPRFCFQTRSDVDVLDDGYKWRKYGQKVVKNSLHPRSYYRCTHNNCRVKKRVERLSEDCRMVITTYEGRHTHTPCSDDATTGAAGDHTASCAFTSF

The target of the assay is OsWRKY34 (Oryza sativa, UniProt Q0JBA9 1-250). As to the kind of experiment: protein-binding microarray (RPBM); PBS, 2% BSA, 51.3 ng/ul salmon testes DNA, 50 uM zinc acetate, 200 nM TF, 25 C, 1 h; high values mean tight binding. Particulars: protein: recombinant; tags: N-terminal polyhistidine and DsRed monomer fusion (pET32a); label: CyDye5-dUTP incorporated in the synthesized complementary strand; 3' TTTTT single-stranded linker to array surface; dsDNA, one strand shown. The procedure, abridged:
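In PBS with 2% BSA, salmon testes DNA and 50 µM zinc acetate, 200 nM protein was incubated on a custom Agilent array at 25 °C for 1 h and then washed off. The array had been made double-stranded by primer extension with Cy5-dUTP and blocked with 2% BSA. The proteins were transcription factors fused N-terminally to polyhistidine and DsRed, expressed in E. coli BL21-CodonPlus and purified on Ni–NTA. The binding signal is per-feature fluorescence intensity (arbitrary units) from an Axon 4000B scanner.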
Regarding “TCGTTCTCTGTTTCTTTTTGCTGAGCTCTTCAAGTATGGACGGAGTCACCTAGTGCAG”, the binding signal is 8290 fluorescence intensity (a.u.). Take “CGTTCCAATTTTAACCAGACTTTCAATTTTGGCGTGAACTCGGAGTCACCTAGTGCAG”: the binding signal was 8800 fluorescence intensity (a.u.). As for “CTCCCTCCGCCGCCCCGGTTACGCAACCAAATACCGACGGCGGAGTCACCTAGTGCAG”, the binding signal is 8050 fluorescence intensity (a.u.).

Take “CTACGTCTACTTGCGCGTTTCTTGCCGTCTTCCCAGCGTGCGGAGTCACCTAGTGCAG”: the binding signal was 8750 fluorescence intensity (a.u.). Consider “ATACACTGCTGCCCATGTCTTTTGAGCGCCGCTCGACTATCGGAGTCACCTAGTGCAG”, for which the binding signal is 9750 fluorescence intensity (a.u.). As for “TCATCACTCATCAAGGCTGCTTGGCTGCTTTAAGCATTCACGGAGTCACCTAGTGCAG”, the figure is 8390 fluorescence intensity (a.u.); as for “GTTTTTTCCCTTATGGTTGAACTCTTCTTTTAATCAGCTTCGGAGTCACCTAGTGCAG”, 8480 fluorescence intensity (a.u.). “CCCCGGCCCACACCTCCCCACAGTTTTGACCGACATTGTGCGGAGTCACCTAGTGCAG”: the binding signal was 8500 fluorescence intensity (a.u.). On to “TTGTCTCAAATTAATTGTTTTTTAAGGTTGTTTGGCATATCGGAGTCACCTAGTGCAG”, for which the binding signal is 9260 fluorescence intensity (a.u.). Regarding “TGTTTGCAGTTAGTGGAACTGAGTTTGGTTCTTCCTATTCCGGAGTCACCTAGTGCAG”, the binding signal was 8900 fluorescence intensity (a.u.). Regarding “CAGTGACCAGTGTAATATGTTTCATAGTGTCGTTCTTTTCCGGAGTCACCTAGTGCAG”, the binding signal was 9850 fluorescence intensity (a.u.). As for “AAATGTTTGACGCCGTTGACTTTTTTAAACATGTTTGACCCGGAGTCACCTAGTGCAG”, the binding signal is 33600 fluorescence intensity (a.u.). On to “CGCAGTCTCCTCCATCTATTTCTCTCTCTCGCTCCAGCGACGGAGTCACCTAGTGCAG”, for which the binding signal was 8030 fluorescence intensity (a.u.).

In the case of “ATTATCTACAGTATTTTAAGCACAACTTTTTGTTTTTTACCGGAGTCACCTAGTGCAG”, the binding signal is 9540 fluorescence intensity (a.u.). As for “AATCTCCCGTCTCGTTCTCGTCGTCTCCTCCGCTCCGCTCCGGAGTCACCTAGTGCAG”, the figure is 10200 fluorescence intensity (a.u.). On to “TTTTTTTTGTGGTTGGTTGTATCGTGATCCTAAGTGTGAACGGAGTCACCTAGTGCAG”, for which the binding signal is 15300 fluorescence intensity (a.u.). As to “CGTCACGTACACAAGTATATATTATTCGAGCCATTTTATTCGGAGTCACCTAGTGCAG”, the binding signal is 8030 fluorescence intensity (a.u.). As for “GATCAACTATTGCACATTAACTGCCGCCTCTAACATTTAACGGAGTCACCTAGTGCAG”, the figure is 8090 fluorescence intensity (a.u.); as for “AGTTATATTACCCACACATCGCCACGCATTGCCGGCCATGCGGAGTCACCTAGTGCAG”, 8210 fluorescence intensity (a.u.). “CATTACAACTTTAAACGTTATTCGGGGCATTATATACGTCCGGAGTCACCTAGTGCAG”: the binding signal is 9590 fluorescence intensity (a.u.).

Consider “ACCTAATTAATCCGTCATTAACAAATGTTTACCGTAACACCGGAGTCACCTAGTGCAG”, for which the binding signal is 8660 fluorescence intensity (a.u.). With “GCAATTAGGCTAGTATCTGAGGCAACGCCATCCTCACAATCGGAGTCACCTAGTGCAG”, the binding signal was 8180 fluorescence intensity (a.u.).

Turning to “ACACAGCCTGGCCCGTCACATGCAGCGCGCGGCACCCGCGCGGAGTCACCTAGTGCAG”, the binding signal is 10400 fluorescence intensity (a.u.). Next, “TATTATTGTTCTGTATCCGGTTCCACGATCCGCCAATCCGCGGAGTCACCTAGTGCAG”: 11200 fluorescence intensity (a.u.). For the sequence “GCCTCCTCTCGAGTTCACCTGCCACCCGCCCGCCGCCGCCCGGAGTCACCTAGTGCAG”, the binding signal was 12100 fluorescence intensity (a.u.). As for “CAAACGCCTTTTTTTTTTCTTTTCTTTTTTTTTTCGCGTCCGGAGTCACCTAGTGCAG”, the figure is 9200 fluorescence intensity (a.u.). Next, “ACGGTCAAACATTTTTAAAAAAGTCAACGGCGTCAAATATCGGAGTCACCTAGTGCAG”: 12000 fluorescence intensity (a.u.).

Regarding “CCGGCAAATCCTTAATTAATTAATTATGCATCATCTATTTCGGAGTCACCTAGTGCAG”, the binding signal was 9170 fluorescence intensity (a.u.). In the case of “GTGGTGGTGCGCGGCGGCGGCGGCGGGGAGGGGTGTGTGTCGGAGTCACCTAGTGCAG”, the binding signal is 24500 fluorescence intensity (a.u.). “ACCCCGCGCTTCACTTCGCTTCACTTCGGCTTCGCTTCCACGGAGTCACCTAGTGCAG”: the binding signal is 8460 fluorescence intensity (a.u.). Regarding “AAGTTCTTGCCGGCCCAACTCAACACCCGCTGCTCGATCCCGGAGTCACCTAGTGCAG”, the binding signal is 8680 fluorescence intensity (a.u.). As for “GCTTCTTTGATTGTTGAGCGGGTTGTGTTCTTCATCACTTCGGAGTCACCTAGTGCAG”, the figure is 9990 fluorescence intensity (a.u.). As for “CCAGTGATCCCACCTATGGTCTTTTGCCTTCAGTACCTGACGGAGTCACCTAGTGCAG”, the figure is 10400 fluorescence intensity (a.u.). For “AATTCCTGGCTACGCCACTGCTGCTCTATATATCAAGCCGCGGAGTCACCTAGTGCAG”, the binding signal was 8080 fluorescence intensity (a.u.).

As for “GGGGTGATCTAACTTATAAGTAAATGTTATAGCGTGAAATCGGAGTCACCTAGTGCAG”, the binding signal was 8770 fluorescence intensity (a.u.). Regarding “GCGTAGACCATTTCTTCAAACCTCAATACATATTAAACATCGGAGTCACCTAGTGCAG”, the binding signal is 8860 fluorescence intensity (a.u.). “TTGTTCACTTTGCTACCATTTTCAACCTTATTAGTTTTTGCGGAGTCACCTAGTGCAG”: the binding signal is 8380 fluorescence intensity (a.u.).

For the sequence “ACATTTGACCGTCCTATTTTTTTTATATCATCGGGCGTCCCGGAGTCACCTAGTGCAG”, the binding signal is 10900 fluorescence intensity (a.u.). As for “GTCGCCGACCACCTCTGGGACTTTTACCTTGGCGGCCGCTCGGAGTCACCTAGTGCAG”, the binding signal was 9350 fluorescence intensity (a.u.). As for “TAGAATGGCTGGTTCACAGCTCCTCCACCTCGTTTTTTCCCGGAGTCACCTAGTGCAG”, the binding signal is 8840 fluorescence intensity (a.u.). With “AAGGTCGTTGACTTTTTATTCGTCCTCGTCTAATTTCTCCCGGAGTCACCTAGTGCAG”, the binding signal is 33600 fluorescence intensity (a.u.).

With “CAGGGCCCTCTTGCCTTTCGATCGACACGCATCGGTCTCTCGGAGTCACCTAGTGCAG”, the binding signal is 9030 fluorescence intensity (a.u.).

Source of the values: publication PMC7819943, “Rice protein-binding microarrays: a tool to detect cis-acting elements near promoter regions in rice”.
